Experimental data taken from article doi:10.1101/2024.10.23.619882.

T1: GST-tagged SH3 domain of EndoA2 (rat) (UniProt O35964)
T1 sequence: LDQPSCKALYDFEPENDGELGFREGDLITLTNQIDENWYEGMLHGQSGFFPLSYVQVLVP


Tests used:
[1] = biological target: T1, GST-tagged SH3 domain of EndoA2 (rat); assay: pull-down
[2] = biological target: Myc-tagged wild-type NHSL1-F1 (human); assay: far-Western, overlay or dot blot
[3] = biological target: Myc-tagged NHSL1-F1 with the 9 EndoA2 sites that do not bind Abi mutated (human); assay: far-Western, overlay or dot blot

Row | Molecule | binding [1] | binding [2] | binding [3]
1 | Myc-tagged wild-type NHSL1-F1 (human) | binds |  | 
2 | MBP-tagged EndoA2 SH3 domain (domain or fragment, UniProt O35964 306-365) LDQPSCKALYDFEPENDGELGFREGDLITLTNQIDENWYEGMLHGQSGFFPLSYVQVLVP |  | binds | binds

No constants are given. Whether binding was seen depends on the method and setting. A result given as binding can be weak or reduced; the word gives no strength. Where a sequence is shown, tags or fusion partners need not be part of it. For part of these data: Binding seen in cells or lysates may run through a third protein.
